The values below come from paper PMC5411712.

Protein sequences, listed by entry. Tags and fused reporters are not part of them.
UniProt O08586: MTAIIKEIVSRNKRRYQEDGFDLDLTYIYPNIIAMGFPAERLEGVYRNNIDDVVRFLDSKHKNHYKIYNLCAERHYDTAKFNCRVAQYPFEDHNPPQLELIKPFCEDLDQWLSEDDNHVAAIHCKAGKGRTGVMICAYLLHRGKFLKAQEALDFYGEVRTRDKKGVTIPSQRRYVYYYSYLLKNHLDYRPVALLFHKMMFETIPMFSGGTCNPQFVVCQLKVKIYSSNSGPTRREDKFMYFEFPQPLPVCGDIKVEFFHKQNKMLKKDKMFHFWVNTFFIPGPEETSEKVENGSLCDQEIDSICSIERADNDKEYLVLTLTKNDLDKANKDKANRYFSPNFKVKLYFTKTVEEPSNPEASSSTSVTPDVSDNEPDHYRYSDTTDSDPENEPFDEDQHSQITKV
UniProt P60484: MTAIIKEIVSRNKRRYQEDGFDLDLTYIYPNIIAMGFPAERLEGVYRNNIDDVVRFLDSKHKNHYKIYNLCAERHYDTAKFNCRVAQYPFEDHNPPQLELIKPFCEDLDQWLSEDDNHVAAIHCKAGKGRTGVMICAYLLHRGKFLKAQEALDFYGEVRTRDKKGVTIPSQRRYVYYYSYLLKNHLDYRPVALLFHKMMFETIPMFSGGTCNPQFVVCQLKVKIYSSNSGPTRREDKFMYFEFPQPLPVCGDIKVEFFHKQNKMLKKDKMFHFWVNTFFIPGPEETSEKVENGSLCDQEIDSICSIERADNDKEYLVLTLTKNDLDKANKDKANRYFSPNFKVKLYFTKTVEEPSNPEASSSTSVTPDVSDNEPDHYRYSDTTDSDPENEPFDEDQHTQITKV
UniProt Q9JM73: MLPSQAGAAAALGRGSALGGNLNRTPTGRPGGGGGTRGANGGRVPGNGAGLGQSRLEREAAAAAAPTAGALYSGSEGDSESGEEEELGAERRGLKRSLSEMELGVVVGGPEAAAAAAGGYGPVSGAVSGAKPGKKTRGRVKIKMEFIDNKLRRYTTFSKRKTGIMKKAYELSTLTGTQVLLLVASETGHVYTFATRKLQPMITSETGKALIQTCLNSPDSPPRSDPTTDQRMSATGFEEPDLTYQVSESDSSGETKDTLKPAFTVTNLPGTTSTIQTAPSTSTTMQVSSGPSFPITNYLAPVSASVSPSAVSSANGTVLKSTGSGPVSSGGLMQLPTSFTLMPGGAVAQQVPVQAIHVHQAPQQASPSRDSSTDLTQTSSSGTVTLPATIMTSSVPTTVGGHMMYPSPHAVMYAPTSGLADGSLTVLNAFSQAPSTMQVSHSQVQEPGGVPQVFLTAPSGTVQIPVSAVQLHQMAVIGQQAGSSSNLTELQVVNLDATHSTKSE

Numbering of substitutions follows the chain as printed. No constants are given. Whether binding was seen depends on the method and setting. For some assays here: In cells and extracts the contact can be indirect. Some binding calls cover weakened binding; strength is not graded here. For some assays here: Where a sequence is shown, tags or fusion partners need not be part of it.

Experiment [1] deals with T1, myocardin, endogenous in smooth muscle cells (rat (endogenous in rat aortic SMCs)), Q8R5I7.
T1 chain: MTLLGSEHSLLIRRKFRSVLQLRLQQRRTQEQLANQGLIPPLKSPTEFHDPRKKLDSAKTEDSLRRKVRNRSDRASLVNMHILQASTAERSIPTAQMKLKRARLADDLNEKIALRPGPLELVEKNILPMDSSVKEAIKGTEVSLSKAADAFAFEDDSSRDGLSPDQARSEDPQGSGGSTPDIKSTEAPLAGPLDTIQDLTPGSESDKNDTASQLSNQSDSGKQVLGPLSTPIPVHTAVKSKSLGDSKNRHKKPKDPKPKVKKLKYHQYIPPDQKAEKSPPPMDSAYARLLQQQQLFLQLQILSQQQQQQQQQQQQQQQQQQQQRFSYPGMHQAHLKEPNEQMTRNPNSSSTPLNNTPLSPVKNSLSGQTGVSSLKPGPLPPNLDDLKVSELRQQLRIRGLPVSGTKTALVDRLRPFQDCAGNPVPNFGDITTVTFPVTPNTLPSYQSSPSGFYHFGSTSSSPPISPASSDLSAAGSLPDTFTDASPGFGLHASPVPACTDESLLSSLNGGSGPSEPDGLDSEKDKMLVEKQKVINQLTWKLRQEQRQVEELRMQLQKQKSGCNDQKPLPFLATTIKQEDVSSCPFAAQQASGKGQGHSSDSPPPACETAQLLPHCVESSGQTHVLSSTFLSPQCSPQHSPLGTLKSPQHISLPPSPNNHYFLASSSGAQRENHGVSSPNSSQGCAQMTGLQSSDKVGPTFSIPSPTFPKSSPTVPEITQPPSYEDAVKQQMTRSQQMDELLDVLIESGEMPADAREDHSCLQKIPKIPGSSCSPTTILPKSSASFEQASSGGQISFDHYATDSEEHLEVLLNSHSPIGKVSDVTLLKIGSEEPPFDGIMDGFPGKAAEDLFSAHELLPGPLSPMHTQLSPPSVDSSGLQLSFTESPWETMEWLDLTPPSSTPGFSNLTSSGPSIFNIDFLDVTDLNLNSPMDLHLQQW
Put plainly: co-IP; endogenous proteins in whole cell lysates (mPER buffer) of cultured human or rat aortic SMCs serum-restricted 48 h; IP with anti-PTEN, anti-SRF, anti-myocardin or anti-Elk-1 and protein A-Sepharose, 16-18 h 4 °C; immunoblot; non-specific IgG as control; in SMCs with PTEN shRNA (Fig. 4c) less SRF with myocardin. Particulars: remark: other sources report otherwise. For orientation: In western blotting, separated proteins are transferred to a membrane and probed.

Experiment [2] concerns the target PTEN, endogenous in mouse cells and tissue (mouse (endogenous in L929 fibroblasts and mouse aortic media)) (UniProt O08586). Description: co-IP; whole cell lysates of smooth muscle-rich aortic media of wild-type mice; PTEN immunoprecipitated, SRF immunoblotted.
For experiment [3] the target is unchanged. Put plainly: co-IP; L929 fibroblasts; SRF immunoprecipitated with PTEN.
The target in experiment [4] is PTEN, endogenous in human aortic smooth muscle cells (human (endogenous in human aortic SMCs)) (UniProt P60484). Description: co-IP; endogenous proteins in whole cell lysates (mPER buffer) of cultured human or rat aortic SMCs serum-restricted 48 h; IP with anti-PTEN, anti-SRF, anti-myocardin or anti-Elk-1 and protein A-Sepharose, 16-18 h 4 °C; immunoblot; non-specific IgG as control; in SMCs with PTEN shRNA (Fig. 4c) less SRF with myocardin.

Another experiment addresses recombinant His6-PTEN (UniProt P60484). Description: co-IP; in vitro: purified recombinant PTEN and SRF incubated together in Tris buffer (10 mM Tris-HCl pH 8.0, 100 mM NaCl, 10% glycerol, 2 mM MgCl2, 1 mM EDTA, 1 mM DTT, 100 ug/ml BSA); IP with anti-PTEN or anti-SRF 16-18 h 4 °C, protein A-Sepharose; immunoblot; both purified.

B1: serum response factor (SRF), endogenous in rat cells, D3ZHH8 1-504 (protein)
chain: MLPSQAGAAAALGRGSALGGSLNRTPTGRPGGSGGTRGANGGRVPGNGAGLGPGRLEREAAAAAAPTAGALYSGSEGDSESGEEEELGAERRGLKRSLSEMELGVVVGGPEAAAAAAGGYGPVSGAVSGAKPGKKTRGRVKIKMEFIDNKLRRYTTFSKRKTGIMKKAYELSTLTGTQVLLLVASETGHVYTFATRKLQPMITSETGKALIQTCLNSPDSPPRSDPSTDQRMSATGFEEPDLTYQVSESDSSGETKDTLKPAFTVTNLPGTTSTIQTAPSTSTTMQVSSGPSFPITNYLAPVSASVSPSAVSSANGTVLKSTGSGPVSSGGLMQLPTSFTLMPGGAVAQQVPVQAIHVHQAPQQASPSRDSSTDLTQTSSSGTVTLPATIMTSSVPTTVGGHMMYPSPHAVMYAPTSGLADGSLTVLNAFSQAPSTMQVSHSQVQEPGGVPQVFLTAPSGTVQIPVSAVQLHQMAVIGQQAGSSSNLTELQVVNLDATHSTKSE
Turning to B1, in experiment [1], the binding result was “binds”.

B2: serum response factor (SRF), endogenous in mouse cells and tissue (protein, UniProt Q9JM73 1-504)
chain: B1 chain with S21N, S33G, P53Q, G54S, S227T
For the molecule B2, the binding result in experiment [2] and in experiment [3] was “binds” each time.

B3: serum response factor (SRF), endogenous in human aortic smooth muscle cells (protein, UniProt P11831 1-508)
chain: MLPTQAGAAAALGRGSALGGSLNRTPTGRPGGGGGTRGANGGRVPGNGAGLGPGRLEREAAAAAATTPAPTAGALYSGSEGDSESGEEEELGAERRGLKRSLSEMEIGMVVGGPEASAAATGGYGPVSGAVSGAKPGKKTRGRVKIKMEFIDNKLRRYTTFSKRKTGIMKKAYELSTLTGTQVLLLVASETGHVYTFATRKLQPMITSETGKALIQTCLNSPDSPPRSDPTTDQRMSATGFEETDLTYQVSESDSSGETKDTLKPAFTVTNLPGTTSTIQTAPSTSTTMQVSSGPSFPITNYLAPVSASVSPSAVSSANGTVLKSTGSGPVSSGGLMQLPTSFTLMPGGAVAQQVPVQAIQVHQAPQQASPSRDSSTDLTQTSSSGTVTLPATIMTSSVPTTVGGHMMYPSPHAVMYAPTSGLGDGSLTVLNAFSQAPSTMQVSHSQVQEPGGVPQVFLTASSGTVQIPVSAVQLHQMAVIGQQAGSSSNLTELQVVNLDTAHSTKSE
For B3, in experiment [4], the binding result was “binds”.

B4: recombinant SRF made as GST–SRF (protein, UniProt P11831 1-508)
chain: B3 chain
In the case of B4, in the experiment with recombinant His6-PTEN, the binding result is “binds”.
